Assay results published in US8178087B2, “Process of production of bacteriophage compositions and methods in phage therapy field” (priority 2006, dated 2012).
For at least one compound, name, drawing or mass did not settle the structure.

Assays:
[1] = system: non-infected E. coli MFP; test: antibiotic sensitivity test disks on non-infected MFP strain; assay type: cell-based, Escherichia coli; conditions: FIG. 1
[2] = system: φmF-infected E. coli MFP; test: φmF plaque size around antibiotic disks on MFP strain; assay type: cell-based, Escherichia coli
Excerpt: A culture of non-infected MFP strain has been grown overnight in LB liquid medium, and then a dilution of the culture either alone or mixed with φmF phage have been inoculated on a series of nutrient Petri plate where different antibiotic sensitivity test disks were placed on the surface.
The entire surface of the Petri plate was inoculated with a mixture of both the MFP bacterial host and with the phage φmF that could infect it (see FIG. 1, φmF-infected E. coli MFP).

With C=CC1=C(C(=O)O)N2C(=O)[C@@H](NC(=O)/C(=N\OCC(=O)O)c3csc(N)n3)[C@H]2SC1 [CFM, cefixime] the “sensitivity or resistance of the MFP bacterial strain to antibiotic (zone of growth inhibition around disks)” value [1] was “sensitivity”, the “stimulation of phage φMFP growth by antibiotic disks” value ([2]; FIG. 1, disks marked with +) was “good stimulation” and the “size of φmF plaques in the zone of non lethal antibiotic concentration around disks” value ([2]; MFP host mixed with phage φmF, FIG. 1) was “significantly larger size”.
